These results are taken from PubChem BioAssay AID186 (DTP/NCI, 2004).

Shown are survivors of the treated group in tumour-free mice. Survivors were counted at the toxicity check, usually on the fifth day, unless a day is given; later deaths do not show. Schedules are NCI's codes, read here as Q, the interval in days (D) or hours (H), X, the number of doses. Some schedule codes hold Z or #, which are not explained here.

For the experiment, the system named is B6D2F1 mice, nontumored toxicity test, survival. Kind of experiment: NCI In Vivo Anticancer Drug Screen. Data for tumor model Nontumored Animals (Toxicity Test) in B6D2F1 (BDF1) mice.

For `CS(C)=O`, the survivor count (dose: 0.6 grams/kg/injection, schedule: Q01DX001 (ip), vehicle: DMSO) is listed as 10 of 10; the survivor count (dose: 0.6 grams/kg/injection, schedule: Q01DX001 (ip), vehicle: other) is 10 of 10; the survivor count (dose: 0.8 grams/kg/injection, schedule: Q01DX001 (ip), vehicle: other) is 10 of 10; the survivor count (dose: 1.2 grams/kg/injection, schedule: Q01DX001 (ip), vehicle: other) is given as 10 of 10; the survivor count (dose: 1.3 grams/kg/injection, schedule: Q01DX001 (ip), vehicle: DMSO) is on record as 10 of 10; the survivor count (dose: 1.6 grams/kg/injection, schedule: Q01DX001 (ip), vehicle: other) is reported as 10 of 10. Moreover, the survivor count is reported as 10 of 10 (dose: 2.3 grams/kg/injection, schedule: Q01DX001 (ip), vehicle: other); 10 of 10 (dose: 2.5 grams/kg/injection, schedule: Q01DX001 (ip), vehicle: DMSO); 10 of 10 (dose: 3.1 grams/kg/injection, schedule: Q01DX001 (ip), vehicle: other); 10 of 10 (dose: 4.7 grams/kg/injection, schedule: Q01DX001 (ip), vehicle: other); 10 of 10 (dose: 5.0 grams/kg/injection, schedule: Q01DX001 (ip), vehicle: DMSO); 9 of 10 (dose: 5.0 grams/kg/injection, schedule: Q01DX002 (ip), vehicle: DMSO). Further, the survivor count by setting is: (dose: 5.0 grams/kg/injection, schedule: Q01DX003 (ip), vehicle: DMSO) 8 of 10; (dose: 5.0 grams/kg/injection, schedule: Q01DX004 (ip), vehicle: DMSO) 4 of 10; (dose: 5.0 grams/kg/injection, schedule: Q01DX005 (ip), vehicle: DMSO) 7 of 10; (dose: 5.0 grams/kg/injection, schedule: Q01DX006 (ip), vehicle: DMSO) 10 of 10; (dose: 5.0 grams/kg/injection, schedule: Q01DX007 (ip), vehicle: DMSO) 7 of 10; (dose: 5.0 grams/kg/injection, schedule: Q01DX008 (ip), vehicle: DMSO) 8 of 10. The survivor count reads like this: (dose: 5.0 grams/kg/injection, schedule: Q01DX009 (ip), vehicle: DMSO) 5 of 10; (dose: 6.3 grams/kg/injection, schedule: Q01DX001 (ip), vehicle: other) 10 of 10; (dose: 9.4 grams/kg/injection, schedule: Q01DX001 (ip), vehicle: other) 10 of 10.
`NC(=O)N(CCCl)N=O`: the survivor count reads like this: (dose: 2.0 mg/kg/injection, schedule: Q01DX001 (ip), vehicle: saline + alcohol) 10 of 10; (dose: 4.0 mg/kg/injection, schedule: Q01DX001 (ip), vehicle: saline + alcohol) 10 of 10; (dose: 8.0 mg/kg/injection, schedule: Q01DX001 (ip), vehicle: saline + alcohol) 10 of 10; (dose: 16.0 mg/kg/injection, schedule: Q01DX001 (ip), vehicle: saline + alcohol) 10 of 10; (dose: 32.0 mg/kg/injection, schedule: Q01DX001 (ip), vehicle: saline + alcohol) 7 of 10; (dose: 64.0 mg/kg/injection, schedule: Q01DX001 (ip), vehicle: saline + alcohol) 0 of 10.
For the compound `CC/C(=C(/CC)c1ccc(O)cc1)c1ccc(O)cc1`, the survivor count runs as follows: (dose: 8.0 mg/kg/injection, schedule: Q03HX016 (ip), vehicle: saline with Tween-80) 8 of 8; (dose: 8.0 mg/kg/injection, schedule: Q03HX024 (ip), vehicle: saline with Tween-80) 6 of 8; (dose: 16.0 mg/kg/injection, schedule: Q01DX009 (ip), vehicle: saline with Tween-80) 8 of 8; (dose: 16.0 mg/kg/injection, schedule: Q03HX008 (ip), vehicle: saline with Tween-80) 8 of 8; (dose: 16.0 mg/kg/injection, schedule: Q03HX016 (ip), vehicle: saline with Tween-80) 8 of 8; (dose: 16.0 mg/kg/injection, schedule: Q03HX024 (ip), vehicle: saline with Tween-80) 8 of 8. The survivor count (dose: 32.0 mg/kg/injection, schedule: Q01DX009 (ip), vehicle: saline with Tween-80) was 8 of 8; the survivor count (dose: 32.0 mg/kg/injection, schedule: Q03HX008 (ip), vehicle: saline with Tween-80) is recorded as 6 of 8; the survivor count (dose: 32.0 mg/kg/injection, schedule: Q03HX016 (ip), vehicle: saline with Tween-80) is reported as 6 of 8; the survivor count (dose: 32.0 mg/kg/injection, schedule: Q03HX024 (ip), vehicle: saline with Tween-80) is 7 of 8; the survivor count (dose: 64.0 mg/kg/injection, schedule: Q01DX009 (ip), vehicle: saline with Tween-80) is recorded as 7 of 8; the survivor count (dose: 64.0 mg/kg/injection, schedule: Q03HX008 (ip), vehicle: saline with Tween-80) is 7 of 8. Moreover, the survivor count (dose: 64.0 mg/kg/injection, schedule: Q03HX016 (ip), vehicle: saline with Tween-80) is reported as 7 of 8; the survivor count (dose: 64.0 mg/kg/injection, schedule: Q03HX024 (ip), vehicle: saline with Tween-80) is 8 of 8; the survivor count (dose: 64.0 mg/kg/injection, schedule: Q04DX003 (ip), vehicle: saline with Tween-80) is 8 of 8; the survivor count (dose: 64.0 mg/kg/injection, schedule: Q08DX002 (ip), vehicle: saline with Tween-80) is given as 8 of 8; the survivor count (dose: 128.0 mg/kg/injection, schedule: Q01DX001 (ip), vehicle: saline with Tween-80) was 8 of 8; the survivor count (dose: 128.0 mg/kg/injection, schedule: Q01DX009 (ip), vehicle: saline with Tween-80) is 8 of 8. The survivor count (dose: 128.0 mg/kg/injection, schedule: Q03HX008 (ip), vehicle: saline with Tween-80) is 1 of 8; the survivor count (dose: 128.0 mg/kg/injection, schedule: Q03HX016 (ip), vehicle: saline with Tween-80) was 0 of 8; the survivor count (dose: 128.0 mg/kg/injection, schedule: Q03HX024 (ip), vehicle: saline with Tween-80) was 0 of 8; the survivor count (dose: 128.0 mg/kg/injection, schedule: Q04DX003 (ip), vehicle: saline with Tween-80) is recorded as 8 of 8; the survivor count (dose: 128.0 mg/kg/injection, schedule: Q08DX002 (ip), vehicle: saline with Tween-80) is listed as 8 of 8; the survivor count (dose: 256.0 mg/kg/injection, schedule: Q01DX001 (ip), vehicle: saline with Tween-80) is recorded as 8 of 8. Moreover, the survivor count runs as follows: (dose: 256.0 mg/kg/injection, schedule: Q01DX009 (ip), vehicle: saline with Tween-80) 7 of 8; (dose: 256.0 mg/kg/injection, schedule: Q03HX008 (ip), vehicle: saline with Tween-80) 0 of 8; (dose: 256.0 mg/kg/injection, schedule: Q03HX016 (ip), vehicle: saline with Tween-80) 0 of 8; (dose: 256.0 mg/kg/injection, schedule: Q04DX003 (ip), vehicle: saline with Tween-80) 8 of 8; (dose: 256.0 mg/kg/injection, schedule: Q08DX002 (ip), vehicle: saline with Tween-80) 8 of 8; (dose: 512.0 mg/kg/injection, schedule: Q01DX001 (ip), vehicle: saline with Tween-80) 8 of 8. In addition, the survivor count reads like this: (dose: 512.0 mg/kg/injection, schedule: Q01DX009 (ip), vehicle: saline with Tween-80) 0 of 8; (dose: 512.0 mg/kg/injection, schedule: Q04DX003 (ip), vehicle: saline with Tween-80) 5 of 8; (dose: 512.0 mg/kg/injection, schedule: Q08DX002 (ip), vehicle: saline with Tween-80) 6 of 8; (dose: 1024.0 mg/kg/injection, schedule: Q01DX001 (ip), vehicle: saline with Tween-80) 2 of 8; (dose: 1024.0 mg/kg/injection, schedule: Q04DX003 (ip), vehicle: saline with Tween-80) 1 of 8; (dose: 1024.0 mg/kg/injection, schedule: Q08DX002 (ip), vehicle: saline with Tween-80) 4 of 8. Further, the survivor count runs as follows: (dose: 2048.0 mg/kg/injection, schedule: Q01DX001 (ip), vehicle: saline with Tween-80) 1 of 8; (dose: 2048.0 mg/kg/injection, schedule: Q08DX002 (ip), vehicle: saline with Tween-80) 8 of 8.
As for `C[C@]12C=CC(=O)C=C1CC[C@@H]1[C@@H]2C(=O)C[C@@]2(C)[C@H]1CC[C@]2(O)C(=O)CO`, the survivor count is 8 of 8 (dose: 25.0 mg/kg/injection, schedule: Q01DX005 (ip), vehicle: water); 6 of 6 (dose: 25.0 mg/kg/injection, schedule: Q01DX009 (ip), vehicle: water); 6 of 6 (dose: 25.0 mg/kg/injection, schedule: Q## X014 (ip), vehicle: water); 8 of 8 (dose: 50.0 mg/kg/injection, schedule: Q01DX005 (ip), vehicle: water); 6 of 6 (dose: 50.0 mg/kg/injection, schedule: Q01DX009 (ip), vehicle: water); 6 of 6 (dose: 50.0 mg/kg/injection, schedule: Q## X014 (ip), vehicle: water). In addition, the survivor count was 8 of 8 (dose: 100.0 mg/kg/injection, schedule: Q01DX005 (ip), vehicle: water); 6 of 6 (dose: 100.0 mg/kg/injection, schedule: Q01DX009 (ip), vehicle: water); 5 of 6 (dose: 100.0 mg/kg/injection, schedule: Q## X014 (ip), vehicle: water); 8 of 8 (dose: 200.0 mg/kg/injection, schedule: Q01DX001 (ip), vehicle: water); 8 of 8 (dose: 200.0 mg/kg/injection, schedule: Q01DX005 (ip), vehicle: water); 5 of 6 (dose: 200.0 mg/kg/injection, schedule: Q01DX009 (ip), vehicle: water). In addition, the survivor count is 6 of 6 (dose: 200.0 mg/kg/injection, schedule: Q## X014 (ip), vehicle: water); 8 of 8 (dose: 400.0 mg/kg/injection, schedule: Q01DX001 (ip), vehicle: water); 8 of 8 (dose: 400.0 mg/kg/injection, schedule: Q01DX005 (ip), vehicle: water); 8 of 8 (dose: 800.0 mg/kg/injection, schedule: Q01DX001 (ip), vehicle: water); 8 of 8 (dose: 1600.0 mg/kg/injection, schedule: Q01DX001 (ip), vehicle: water); 8 of 8 (dose: 3200.0 mg/kg/injection, schedule: Q01DX001 (ip), vehicle: water).
